Reference: article doi:10.1101/2025.09.03.673757

Chains of the proteins cited; added tags and fusions are not shown.
UniProt P59215: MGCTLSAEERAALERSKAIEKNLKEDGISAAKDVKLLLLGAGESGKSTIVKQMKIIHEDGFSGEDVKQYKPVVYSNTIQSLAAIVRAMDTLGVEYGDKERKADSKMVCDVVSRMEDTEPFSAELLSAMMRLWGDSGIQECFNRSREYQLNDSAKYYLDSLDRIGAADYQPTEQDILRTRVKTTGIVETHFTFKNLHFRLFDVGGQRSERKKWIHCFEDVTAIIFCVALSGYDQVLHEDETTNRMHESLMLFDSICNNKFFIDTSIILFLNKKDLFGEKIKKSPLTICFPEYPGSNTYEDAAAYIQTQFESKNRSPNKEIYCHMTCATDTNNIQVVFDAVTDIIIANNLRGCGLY
UniProt P63101: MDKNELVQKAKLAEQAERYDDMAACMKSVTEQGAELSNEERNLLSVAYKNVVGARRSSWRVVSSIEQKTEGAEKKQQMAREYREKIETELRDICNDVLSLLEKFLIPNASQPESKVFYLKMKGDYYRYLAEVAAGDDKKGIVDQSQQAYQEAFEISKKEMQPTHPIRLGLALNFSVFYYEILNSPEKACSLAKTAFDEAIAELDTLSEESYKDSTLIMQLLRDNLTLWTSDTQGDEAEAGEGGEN

B1: Ywhag (protein, UniProt P61982 1-247)
chain: MVDREQLVQKARLAEQAERYDDMAAAMKNVTELNEPLSNEERNLLSVAYKNVVGARRSSWRVISSIEQKTSADGNEKKIEMVRAYREKIEKELEAVCQDVLSLLDNYLIKNCSETQYESKVFYLKMKGDYYRYLAEVATGEKRATVVESSEKAYSEAHEISKEHMQPTHPIRLGLALNYSVFYYEIQNAPEQACHLAKTAFDDAIAELDTLNEDSYKDSTLIMQLLRDNLTLWTSDQQDDDGGEGNN
B2: RGS7 (protein, UniProt O54829 1-469)
chain: MAQGNNYGQTSNGVADESPNMLVYRKMEDVIARMQDEKNGIPIRTVKSFLSKIPSVFSGSDIVQWLIKNLTIEDPVEALHLGTLMAAHGYFFPISDHVLTLKDDGTFYRFQTPYFWPSNCWEPENTDYAVYLCKRTMQNKARLELADYEAESLARLQRAFARKWEFIFMQAEAQAKVDKKRDKIERKILDSQERAFWDVHRPVPGCVNTTEVDIKKSSRMRNPHKTRKSVYGLQNDIRSHSPTHTPTPETKPPTEDELHQQIKYWQIQLDRHRLKMSKVADSLLSYTEQYVEYDPFLVPPDPSNPWLSDDTTFWELEASKEPSQQRVKRWGFGMDEALKDPVGREQFLKFLESEFSSENLRFWLAVEDLKRRPIREVPSRVQEIWQEFLAPGAPSAINLDSKSYDKTTQNVKEPGRYTFEDAQEHIYKLMKSDSYPRFIRSSAYQELLQAKRKGKTLTSKRLTSLVQSY

Assays:
[1] = target: N-terminally His6-tagged wild-type Gαo (rat) (UniProt P59215); assay: affinity purification with mass spectrometry
[2] = target: N-terminally His6-tagged wild-type Gαo (rat) (UniProt P59215); assay: affinity purification with mass spectrometry; remark: listed apart in the source

Molecule | binding [1] | binding [2]
Ywhaz (from UniProt P63101 1-245) | binds | 
B1 |  | binds
B2 |  | binds

Read-outs that look alike come from different tables or passages of the source. No constants are given. Whether binding was seen depends on the method and setting. Binding seen in cells or lysates may run through a third protein. A yes stands for co-enrichment or nearness to the bait. Other partners may have been found.
